Reference: PubChem BioAssay AID1259294 (Sanger Institute, 2017)

Aim: 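Retest synthetic lethal gene and drug pairs with separate siRNA duplexes in CL40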 (follow-up of hits)
Cells: human CL40 colorectal cancer cells
Reagent: single siRNA against human genes
Challenge: anchor drug or DMSO vehicle added to knock-down cells: BYL719 1 µM, cetuximab 5 µg/ml, trametinib 10 nM
Measured: 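Viability averaged across replicates, each scaled to control pool 2 (non-targeting), under vehicle or anchor drug; synergy score compares observed combined effect with expected effect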
Reading the numbers: synergy score with trametinib and synergy score with BYL719 and synergy score with cetuximab: higher = stronger synergistic (synthetic lethal) killing
Hit rule: 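Called synergy with a drug when the synergy score is above 0.10 for at least one anchor drug, otherwise no synergy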
Calls: active = synergy with a drug; inactive = no synergy
The deposit covers 160 reagents; shown is a part drawn at random. Over the whole deposit, 43 (27%) were called active. 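Calls mean synergy with any one drug, not lethality of knock-down alone; BYL719 1 µM, cetuximab 5 µg/ml, trametinib 10 nM barely cut viability.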 Reagents against one gene are numbered here. Further read-outs or replicates are left out here. Not stated in the record: the amount of reagent, the time to read-out.

CDK6 #1
- synergy score with trametinib: 0.161
- synergy score with BYL719: -0.0846
- synergy score with cetuximab: -0.0516
- outcome: active

CDK6 #2
- synergy score with trametinib: 0.2
- synergy score with BYL719: -0.164
- synergy score with cetuximab: 0.0255
- outcome: active

CDK6 #3
- synergy score with trametinib: 0.0189
- synergy score with BYL719: -0.171
- synergy score with cetuximab: -0.106
- outcome: inactive

CDK6 #4
- synergy score with trametinib: 0.084
- synergy score with BYL719: -0.0711
- synergy score with cetuximab: 0.064
- outcome: inactive

CAMK2N1 #1
- synergy score with trametinib: 0.0171
- synergy score with BYL719: -0.0737
- synergy score with cetuximab: -0.106
- outcome: inactive

CAMK2N1 #2
- synergy score with trametinib: -0.178
- synergy score with BYL719: -0.384
- synergy score with cetuximab: -0.155
- outcome: inactive

CAMK2N1 #3
- synergy score with trametinib: -0.0439
- synergy score with BYL719: -0.101
- synergy score with cetuximab: -0.0404
- outcome: inactive

CAMK2N1 #4
- synergy score with trametinib: -0.0917
- synergy score with BYL719: -0.341
- synergy score with cetuximab: -0.0193
- outcome: inactive

GUCY2D #1
- synergy score with trametinib: 0.00173
- synergy score with BYL719: -0.0505
- synergy score with cetuximab: -0.0899
- outcome: inactive

GUCY2D #2
- synergy score with trametinib: 0.133
- synergy score with BYL719: 0.0549
- synergy score with cetuximab: -0.0345
- outcome: active

GUCY2D #3
- synergy score with trametinib: -0.0319
- synergy score with BYL719: -0.0481
- synergy score with cetuximab: -0.0565
- outcome: inactive

GUCY2D #4
- synergy score with trametinib: 0.132
- synergy score with BYL719: -0.313
- synergy score with cetuximab: -0.068
- outcome: active

Entries listed so far called active (4):
CDK6 #1
- synergy score with trametinib: 0.161
- synergy score with BYL719: -0.0846
- synergy score with cetuximab: -0.0516
- outcome: active

CDK6 #2
- synergy score with trametinib: 0.2
- synergy score with BYL719: -0.164
- synergy score with cetuximab: 0.0255
- outcome: active

GUCY2D #2
- synergy score with trametinib: 0.133
- synergy score with BYL719: 0.0549
- synergy score with cetuximab: -0.0345
- outcome: active

GUCY2D #4
- synergy score with trametinib: 0.132
- synergy score with BYL719: -0.313
- synergy score with cetuximab: -0.068
- outcome: active
